Test results reported in patent publication US20080200492A1, “METHODS FOR THE TREATMENT OF ALCOHOL ABUSE, ADDICTION AND DEPENDENCY” (priority 2006, published 2008).

What was measured:
[1] = test system: alcohol preferring rats; experiment: Alcohol Preferring Rats In Vivo Model, acute oral dosing, two-bottle choice; set-up: species or system rat; conditions: 20 mg/kg p.o., mean ± S.E.M., N = 14
Method: Adult male selectively-bred alcohol preferring rats (N=14) were used. This particular strain of alcohol drinking rat has been characterized and have been widely used to study the effects of different compounds on voluntary alcohol intake (Farren et al., 2000; Rezvani et al, 1990, 1991, 1992a, 1992b, 1999, 2000, 2003; Murphy et al, 1988; Overstreet et al., 2003, 1999; Li and McBride, 1990). Rats were housed individually in approved cages under a constant room temperature of 22+1° C. and 12:12 light-dark cycle (8:00-20:00, dark). Animal were fed Agway Prolab Rat/Mouse/Hamster 3000 formula and water ad libitum.
Alcohol intake was determined using the standard two-bottle choice method utilized in our and other laboratories for many years (Murphy et al. 1988; Rezvani et al. 1990, 1991, 1993, 1995, 1997, Rezvani and Grady, 1994, Rezvani et al., 1993). Animals were first given free access to water in a graduated Richter tube for 2 days. Next, they were given access to only a solution of 10% (v/v) ethanol for 3 consecutive days. During this period animals became accustomed to drinking from Richter tubes and to the taste and pharmacological effects of alcohol. Thereafter, they were given free access to both water and a solution of 10% alcohol for at least 4 consecutive weeks and throughout of the period of study. Rats had free access to food. Water and alcohol intake were recorded at 6 and 24 hour after the treatment, whereas food intake was measured at 24 hour. Animals' body weights were measured the day of the treatment and the day after.
After establishment of stable baseline for alcohol, food, and water intake, rats were administered (gavage) at 9:30 a.m. either with the vehicle or the compound of formula (I) at one of four doses (1,3,10 and 30 mg/kg) using a cross-over design with random assignment. To be able to compare the efficacy of the compound of formula (I) on alcohol intake naltrexone was included as a positive control. The same rats were given an oral dose of 20 mg/kg naltrexone. All animals will receive all treatments in a random order. The interval between treatments was at least 1 week. Alcohol and water intake were recorded 6 and 24 h after the drug administration and food intake was recorded at 24 hr. The volume of the drug administration was 6 ml/kg.
The results at 6 and 24 hours post-dosing are presented in Tables 3 and 4 below, as means ±SEM. Alcohol intake (g/kg) was calculated by multiplying the volume of alcohol consumed in ml by 10% and 0.7893 (ethanol density)/body weight in kg. Alcohol preference, expressed as a percentage, was calculated as follows (volume of alcohol consumed in ml/total fluid intake in ml)×100 (Rezvani and Grady, 1994; Rezvani et al., 1997). Statistical differences between drug-treated and control groups were determined by using ANOVA with repeated measures. Each treatment was compared with the corresponding vehicle value.

[2] = test system: alcohol preferring rats; experiment: Alcohol Preferring Rats, Study A: Chronic Administration (14 days); format: in vivo, rat; conditions: 20 mg/kg once a day, gavage
Method: Adult male selectively-bred alcohol preferring rats were used in this study. The selectively bred alcohol preferring rats are widely used to study the suppressant effects of compounds on voluntary alcohol intake (Faren et al. 2000; Rezvani et al, 1990, 1991, 1992a, 1992b, 1999, 2000, 2002; 2003; Murphy et al, 1988; Overstreet et al., 1992, 1999; Li and McBride, 1995).
The rats were housed individually under a constant room temperature of 22±1° C. and 12:12 light-dark cycle (7:00-19:00, dark). Animals were fed Agway Prolab Rat/Mouse/Hamster 3000 formula and water ad libitum.
Alcohol intake was determined using a standard two-bottle choice method (Murphy et al. 1988; McBride et al. 1990; Rezvani et al. 1990, 1991, 1993, 1995, 1997, Rezvani et al., 2007a,b; Rezvani and Grady, 1994). Animals were first given free access to water in a graduated Richter tube for 1 day. Next, they were given access to only a solution of 10% (v/v) ethanol for 3 consecutive days. During this period the animals became accustomed to drinking from Richter tubes and to the taste and pharmacological effects of alcohol. Thereafter, the animals were given free access to both water and a solution of 10% alcohol for 4 consecutive weeks and throughout of the study. The animals continued to have free access to food. Water and alcohol intake were recorded at 6 and 24 hour.
After establishment of a reliable baseline for alcohol, and water intake, the animals were randomly assigned to a treatment regimen. The animals were administered once a day, via gavage, either vehicle (0.5% methylcellulose) or compound of formula (I-A) (at 30 mg/kg) or naltrexone (at 20 mg/kg) for 14 consecutive days. A group of 6-7 animals was used for each treatment. Alcohol and water intake was recorded at 6 hrs and 24 hrs after administration.
The results are presented as a means ±SEM. Alcohol intake (g/kg) was calculated by multiplying the volume of alcohol consumed in ml by 10% and 0.7893 (ethanol density)/body weight in kg. Alcohol preference, expressed as percentage was calculated as (volume of alcohol consumed in ml/total fluid intake in ml)×100 (Rezvani and Grady, 1994; Rezvani et al., 2007a). Statistical differences between drug-treated and control groups was determined by using ANOVA and Tukey Student's t test for multiple comparison.
The results from Study A provide a measure of whether or not the animals develop tolerance to the suppressant effects of the test compound following a chronic treatment. In Tables 5-8 below, the abbreviation “(I-A)” stands for the compound of formula (I-A), the abbreviation “Naltx” stands for naltrexone, and the abbreviation “EtOH” stands for ethanol.

O=C1CC[C@@]2(O)[C@H]3Cc4ccc(O)c5c4[C@@]2(CCN3CC2CC2)[C@H]1O5 [Naltrexone, naltrexone, reference compound]
Total Fluid Intake ([1]; 6 hrs post-dosing): 39.7 ± 6.02 mL/kg
Water Intake ([1]; 6 hrs post-dosing): 12.6 ± 2.48 mL/kg
Food Intake ([1]; 24 hrs post-dosing): 19.1 ± 1.34 g
Total Fluid Intake ([1]; 24 hrs post-dosing): 118 ± 10.8 mL/kg
Water Intake ([1]; 24 hrs post-dosing): 29.9 ± 5.21 mL/kg
Water Intake ([2]; Day 1, 6 Hour Intake): 12 g/kg
Water Intake ([2]; Day 1, 24 Hour Intake): 28 g/kg
Water Intake ([2]; Day 2, 6 Hour Intake): 14 g/kg
Water Intake ([2]; Day 2, 24 Hour Intake): 29 g/kg
Water Intake ([2]; Day 3, 6 Hour Intake): 12 g/kg
Water Intake ([2]; Day 3, 24 Hour Intake): 30 g/kg
Water Intake ([2]; Day 4, 6 Hour Intake): 9 g/kg
Water Intake ([2]; Day 4, 24 Hour Intake): 21 g/kg
Water Intake ([2]; Day 5, 6 Hour Intake): 9 g/kg
Water Intake ([2]; Day 5, 24 Hour Intake): 18 g/kg
Water Intake ([2]; Day 6, 6 Hour Intake): 5 g/kg
Water Intake ([2]; Day 6, 24 Hour Intake): 36 g/kg
Water Intake ([2]; Day 7, 6 Hour Intake): 5 g/kg
Water Intake ([2]; Day 7, 24 Hour Intake): 14 g/kg
Water Intake ([2]; Day 8, 6 Hour Intake): 3 g/kg
Water Intake ([2]; Day 8, 24 Hour Intake): 13 g/kg
Water Intake ([2]; Day 9, 6 Hour Intake): 4 g/kg
Water Intake ([2]; Day 9, 24 Hour Intake): 10 g/kg
Water Intake ([2]; Day 10, 6 Hour Intake): 4 g/kg
Water Intake ([2]; Day 10, 24 Hour Intake): 13 g/kg
Water Intake ([2]; Day 11, 6 Hour Intake): 1 g/kg
Water Intake ([2]; Day 11, 24 Hour Intake): 1 g/kg
Water Intake ([2]; Day 12, 6 Hour Intake): 2 g/kg
Water Intake ([2]; Day 12, 24 Hour Intake): 2 g/kg
Water Intake ([2]; Day 13, 6 Hour Intake): 4 g/kg
Water Intake ([2]; Day 13, 24 Hour Intake): 4 g/kg
Water Intake ([2]; Day 14, 6 Hour Intake): 3 g/kg
Water Intake ([2]; Day 14, 24 Hour Intake): 10 g/kg
